Binding screen against folded nucleic acids

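The test is a small-molecule microarray: each compound is printed twice on a reactive slide, and binding shows as fluorescence of the labelled oligonucleotide after washing. The data file lists only calls. An earlier report of the laboratory on the PreQ1, TPP and SAM-II riboswitches (doi:10.1038/s41467-019-09493-3) used 1 µM RNA for 2 h and required a mean Z-score above 3 (spot signal-to-noise against the whole library), a score well above that on a control array, and duplicate spots agreeing (coefficient of variation under 100); it then also set aside compounds that hit other targets, which this list keeps. The cut-offs behind this list may differ. A missing hit is not proof of no binding, and a hit is not a measured affinity.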 Key: 1 = hit, 0 = tested without a hit. The compounds are a random part of those screened. A dash means that no call is listed here.

Oligonucleotides screened, 5′ to 3′:
T1: SAM-II riboswitch RNA pseudoknot, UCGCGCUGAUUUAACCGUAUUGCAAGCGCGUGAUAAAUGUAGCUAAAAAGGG. Hit rate about 1% of about 21,000 compounds.
T2: PreQ1 riboswitch RNA pseudoknot, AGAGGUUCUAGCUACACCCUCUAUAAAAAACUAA. From B. subtilis. Hit rate about 0.7% of about 24,000 compounds.
T3: TPP riboswitch RNA three-way junction, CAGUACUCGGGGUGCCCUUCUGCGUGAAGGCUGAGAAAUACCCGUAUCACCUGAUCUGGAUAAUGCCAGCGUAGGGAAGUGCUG. Hit rate about 0.7% of about 24,000 compounds.

compound | T1 | T2 | T3
CN(c1ncccc1CNc1nc(Nc2ccc3c(c2)CC(=O)N3)ncc1C(F)(F)F)S(C)(=O)=O | 0 | 0 | 0
CC(=O)Nc1ccc2nc(CN3CCC(N)(C(=O)O)C3)ccc2c1 (stereo not drawn) | 0 | 0 | 0
Nc1ccc(SCc2nnc(-c3ccc4c(c3)OCO4)o2)cc1 | 0 | 0 | 0
COc1cccc(/C=C2\CCc3ccccc3C2=O)c1 | 0 | 0 | 0
CCCCN1CCc2c1nc1ccc(Br)cc1c2N | 0 | 0 | 0
O=C(CNc1ccc(C(F)(F)F)cc1[N+](=O)[O-])Nc1ccccc1SC(F)(F)C(F)(F)C(F)(F)F | 0 | 0 | 0
O=C(CCc1nc(-c2cccnc2)no1)N1CCCC(O)(CO)C1 (stereo not drawn) | 0 | 0 | 0
Cc1cnc(C)c(N2CC[C@@H](N3CCN(CCc4ccccc4)CC3)[C@H](O)C2)n1 | 0 | 0 | 0
CCOC(=O)N1CCN(c2c(NC3CCC(C)CC3)c(=O)c2=O)CC1 (stereo not drawn) | - | 0 | 0
Cc1nc2c(c(Nc3ccc(N4CCCCC4)cc3)n1)CCC2 | - | 0 | 0
Cc1cc(C)n(CCNC(=O)c2cccc3c2NCCC3)c(=O)n1 | 0 | 0 | 0
COc1cc(OC)c(NC2c3ncccc3C(=O)N2Cc2cccs2)cc1Cl (stereo not drawn) | 0 | 0 | 0
COc1ccc2c(c1OC)CN1CCc3cc4c(cc3C1C2)OCO4 (stereo not drawn) | 0 | 0 | 0
Cc1cc(O)c2c(c1)C(=O)c1cc(O)cc(O)c1C2=O | 0 | 0 | 0
CCc1nc(N)nc(NCC(O)CN(C)C)c1C (stereo not drawn) | 0 | 0 | 0
COC(=O)c1ccc2c(c1)NC(=O)C2=C(Nc1ccc(N(C)C(=O)CN2CCN(C)CC2)cc1)c1ccccc1 | 0 | 0 | 0
O=C(NCc1ccc(-c2ccccc2)cc1)[C@H]1[C@@H]2CNC[C@@H]21 | 0 | 0 | 0
O=S(=O)(c1ccc(F)cc1F)N1CCC(n2cc(CCCO)nn2)CC1 | 0 | 0 | 0
COCCN1CC(Cn2ccnc2-c2ccc(CO)o2)CC1=O (stereo not drawn) | 0 | 0 | 0
N#CC1=C(N)N(c2c(F)cccc2F)C2=C(C(=O)CCC2)C1c1ccc(F)cc1 (stereo not drawn) | 0 | 0 | 0
Nc1ccc(-c2nc(Cn3cncn3)n[nH]2)cc1 | 0 | 0 | 0
Cc1ccccc1C(C(=O)NC1CCCCC1)N(C(=O)CNc1ccc(C#N)cc1)c1cccc(F)c1 (stereo not drawn) | 0 | 0 | 0
O=C(NCCCO)c1nnc(-c2cccc(Cl)c2)o1 | 0 | 0 | 0
O=C(NC1CC1)c1nn(-c2ccc(Cl)cc2)nc1CO | - | 0 | 0
CCN1C(=O)[C@H]2[C@@H](c3cncn3C)N[C@](C(=O)OC)(c3ccccc3)[C@H]2C1=O | 0 | 0 | 0
CNC(=O)[C@@H]1C[C@@H](N)CN1C(=O)CCC(=O)Nc1ccc2c(c1)CCC2 | 0 | 0 | 0
NC(=O)c1cc(C(N)=O)nc(Cl)n1 | 0 | 0 | 0
COCCc1nc(-c2cnc(N)nc2C)n(C2Cc3ccccc3C2)n1 | 0 | 0 | 0
COc1cc([C@@H]2c3cc4c(cc3[C@@H](O[C@@H]3O[C@@H]5CO[C@@H](C)O[C@@H]5[C@H](O)[C@@H]3O)[C@H]3COC(=O)[C@H]23)OCO4)cc(OC)c1O | 0 | 0 | 0
CSc1nc2cc(S(=O)(=O)N3CCCCC3)ccc2s1 | 0 | 0 | 0
O=C(C1CCNC1)N(CCc1ccc(Cl)cc1)Cc1ccncc1 (stereo not drawn) | 0 | 0 | 0
Cc1ccc(C2OCC3(CO)COC(c4ccc(C)cc4)N23)cc1 (stereo not drawn) | 0 | 0 | 0
CCc1ccc(CNCCc2ccc(OC)c(OC)c2)cc1 | 0 | 0 | 0
CCCc1cc(N2CCC(N3CCC(O)(CO)C3)CC2)nc(C)n1 (stereo not drawn) | 0 | 0 | 0
Cc1n[nH]c2c1C(c1ccc(C(F)(F)F)cc1)C(C#N)=C(N)O2 (stereo not drawn) | 0 | 0 | 0
Nc1c(-c2nc(-c3ccc(F)cc3)cs2)c2ccccn2c1C(=O)c1ccc2c(c1)OCO2 | - | 0 | 0
Cc1cc2nc(-c3ccccc3)cc(N3C[C@H]4CNC[C@H]4C3)n2n1 | 0 | 0 | 0
Cc1nc2n(c1C(=O)N(C)C)CCN(C(=O)[C@@]1(C)CCCN1)C2 | 0 | 0 | 0
CCC(=O)Nc1cc(NC(=O)N2CCCC(CO)C2)ccc1OC (stereo not drawn) | 0 | 0 | 0
Cc1ccc(-c2nc3nc(C)cc(N(CCO)Cc4ccccc4)n3n2)cc1 | - | 0 | 0
COc1ccc(-c2csc(C3=C(N)N(C4CCCCCC4)CC3=O)n2)cc1OC | - | 0 | 0
Cc1ccsc1[C@@H]1CCN(C(=O)c2cc(C(C)C)nc(N)n2)C[C@H]1O | 0 | 0 | 0

Once more, the final 5:

compound	T1	T2	T3
Cc1nc2n(c1C(=O)N(C)C)CCN(C(=O)[C@@]1(C)CCCN1)C2	0	0	0
CCC(=O)Nc1cc(NC(=O)N2CCCC(CO)C2)ccc1OC (stereo not drawn)	0	0	0
Cc1ccc(-c2nc3nc(C)cc(N(CCO)Cc4ccccc4)n3n2)cc1	-	0	0
COc1ccc(-c2csc(C3=C(N)N(C4CCCCCC4)CC3=O)n2)cc1OC	-	0	0
Cc1ccsc1[C@@H]1CCN(C(=O)c2cc(C(C)C)nc(N)n2)C[C@H]1O	0	0	0

Calls as published in the ROBIN set (doi:10.1002/anie.202211358).